Results deposited as PubChem BioAssay AID1053208 (Peter MacCallum Cancer Centre, 2014)
Test: 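Find knock-downs that sensitise mouse osteosarcoma cells to doxorubicin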 (primary screen). Cell system: mouse osteosarcoma cells, early-passage culture from an engineered mouse model of fibroblastic bone tumour. Knock-down reagent: siRNA pool against mouse genes, 40 nM. Time to read-out: about 120 h (48 h before drug, then 72 h with drug). Treatment: doxorubicin 100 nM for 72 h, roughly 30-40% inhibitory dose. Measurement: 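Viability read as ATP luminescence after 72 h of 100 nM doxorubicin or none, duplicate wells averaged, scaled to non-targeting siRNA, then expressed as robust z-scores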. Reading the numbers: viability z-score with doxorubicin and doxorubicin viability vs non-targeting: higher = more viable cells under doxorubicin; viability z-score without drug: higher = more viable cells with knock-down alone; z-score of drug to no-drug ratio: higher = less drug sensitisation by knock-down. Rule for the call: 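a pool counts as active when its viability z-score with doxorubicin is -2 or below and its z-score without drug lies between -2 and 2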.
Here is a random part of about 17,000 deposited reagents. 788 of all reagents (4.7%) were called active. 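Calls rest on z-score classes alone; an extra cut-off of viability at most 70% of control was not applied to them.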 Unmarked entries are inactive. The numbers tell different reagents against one gene apart. Reagent sequences are not shown.

gene | reagent | combined z-score class | viability z-score with doxorubicin | viability z-score without drug | z-score of drug to no-drug ratio | doxorubicin viability vs non-targeting
Gfm1 (GeneID 28030) | 1 | no change with or without drug | 0.34 | 0.84 | -0.11 | 0.97
Ndst2 (GeneID 17423) | 1 | no change with or without drug | -1.12 | -0.84 | -0.56 | 0.84
Usp9y (GeneID 107868) | 1 | no change with or without drug | 0 | 0.84 | -0.45 | 0.94
Ppil4 (GeneID 67418) | 1 | no change with or without drug | -0.34 | -0.51 | 0.11 | 0.91
Fbxl6 (GeneID 30840) | 1 | no change with or without drug | -1.01 | 0.84 | -1.46 | 0.85
Comt (GeneID 12846) | 1 | no change with or without drug | -0.11 | -0.17 | 0.11 | 0.93
Or1aa2 (GeneID 258289) | 1 | no change with or without drug | 0.56 | -0.17 | 0.79 | 0.99
Fryl (GeneID 72313) | 1 | no change with or without drug | 0.9 | -0.17 | 1.24 | 1.02
Fryl (GeneID 72313) | 2 | high cell count with doxorubicin only | 2.36 | 1.69 | 1.35 | 1.15
Axin2 (GeneID 12006) | 1 | no change with or without drug | -0.22 | 0.67 | -0.56 | 0.92
Or4a47 (GeneID 258985) | 1 | no change with or without drug | -0.67 | -1.35 | 0.34 | 0.88
Acsl4 (GeneID 50790) | 1 | no change with or without drug | -0.9 | 0.34 | -1.01 | 0.86
C1ql3 (GeneID 227580) | 1 | no change with or without drug | 0.22 | 0.17 | 0.22 | 0.96
H13 (GeneID 14950) | 1 | no change with or without drug | 0.45 | -0.34 | 0.79 | 0.98
Mcoln2 (GeneID 68279) | 1 | no change with or without drug | 1.35 | 0.84 | 0.9 | 1.06
Txndc11 (GeneID 106200) | 1 | high cell count with doxorubicin only | 2.25 | 0.17 | 2.36 | 1.14
Krtap26-1 (GeneID 69533) | 1 | no change with or without drug | 0.67 | 0.34 | 0.56 | 1
Ccl28 (GeneID 56838) | 1 | no change with or without drug | -0.45 | -0.17 | -0.22 | 0.9
Or2t26 (GeneID 258877) | 1 | no change with or without drug | -1.35 | -1.01 | -0.67 | 0.82
Pias2 (GeneID 17344) | 1 | no change with or without drug | 0.34 | -0.51 | 0.79 | 0.97
Rnf130 (GeneID 59044) | 1 | no change with or without drug | 0 | -0.84 | 0.67 | 0.94
Stard8 (GeneID 236920) | 1 | no change with or without drug | -1.57 | 0.84 | -2.02 | 0.8

4 of these entries in another layout:
gene	reagent	combined z-score class	viability z-score with doxorubicin	viability z-score without drug	z-score of drug to no-drug ratio	doxorubicin viability vs non-targeting
Comt (GeneID 12846)	1	no change with or without drug	-0.11	-0.17	0.11	0.93
Or1aa2 (GeneID 258289)	1	no change with or without drug	0.56	-0.17	0.79	0.99
Fryl (GeneID 72313)	1	no change with or without drug	0.9	-0.17	1.24	1.02
Fryl (GeneID 72313)	2	high cell count with doxorubicin only	2.36	1.69	1.35	1.15

Additional reagents follow:
gene | reagent | combined z-score class | viability z-score with doxorubicin | viability z-score without drug | z-score of drug to no-drug ratio | doxorubicin viability vs non-targeting
Srst (GeneID 20819) | 1 | no change with or without drug | 0.79 | 0.51 | 0.56 | 1.01
Ppp1r14a (GeneID 68458) | 1 | no change with or without drug | 0.9 | 0.51 | 0.67 | 1.02
Cul1 (GeneID 26965) | 1 | no change with or without drug | 0.79 | -0.17 | 1.01 | 1.01
BC028528 (GeneID 229600) | 1 | no change with or without drug | -1.46 | 0.17 | -1.57 | 0.81
Or8h9 (GeneID 258764) | 1 | no change with or without drug | 1.12 | 0 | 1.24 | 1.04
Prss21 (GeneID 57256) | 1 | no change with or without drug | 0.56 | -0.17 | 0.79 | 0.99
Ndp (GeneID 17986) | 1 | no change with or without drug | 1.57 | 0.84 | 1.12 | 1.08
Dhx40 (GeneID 67487) | 1 | no change with or without drug | 0 | 0.51 | -0.22 | 0.94
Btnl10 (GeneID 192194) | 1 | no change with or without drug | 0.79 | -0.17 | 1.01 | 1.01
Smyd5 (GeneID 232187) | 1 | no change with or without drug | -1.24 | -0.84 | -0.67 | 0.83
Or7g35 (GeneID 258517) | 1 | no change with or without drug | -0.56 | 0.17 | -0.56 | 0.89
Gm9732 (GeneID 108168154) | 1 | no change with or without drug | 0.56 | 1.18 | -0.11 | 0.99
